Results: patent US20230365519A1, “CARBOXYLIC DIARYLTHIAZEPINEAMINES AND USES THEREOF” (Kures, Inc., priority 2020, published 2023)
The name of at least one read-out is uncertain.

Experiment: Brain pharmacokinetics of tianeptine and its 5-carbon metabolite (7i) in mice
Conditions: C57BL/6 mice, single injection of tianeptine 30 mg/kg i.p.
Protocol: Experimental Protocol for PK Studies. […] Brain samples were collected from three mice at 0.08, 0.25, 0.5, 1, 2, 4, 8 and 24 h, homogenized using ice-cold phosphate buffer saline (pH 7.4), and stored below -70° C. until analysis. Total homogenate volume was three times the tissue weight. All samples were processed for analysis by protein precipitation using acetonitrile (ACN) and analyzed with a fit-for-purpose LC/MS/MS method (LLOQ - 1.01 ng/mL in brain). Pharmacokinetic parameters were calculated using the non-compartmental analysis tool of Phoenix WinNonlin® (Version 6.3).

## CN1c2ccccc2C(NCCCCC(=O)O)c2ccc(Cl)cc2S1(=O)=O.Cl (stereo not shown) [Compound 7i]
  Cmax: 2865 ng/g
